# Counter-ions that a name gives are not always drawn. This is one part of the list. Repeats in this data set agree poorly, so a single value says little.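 Cells: ReNCell VM human fetal ventral-midbrain neural progenitors, differentiated mitogen-free. Blinded raters compared doublecortin-stained (early neurons) or tyrosine hydroxylase-stained (dopaminergic neurons) images with untreated wells, where 0 means no change. After repeats and both raters were averaged, compounds scoring 2 or above became hits for retesting.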
# Experiments:
# ReNCell VM [1] = assay: neuronal differentiation score (DCX+ cell fraction vs untreated, manual image score) (score (-3 to 3)); higher = more neuronal differentiation; conditions: 2 uM, 2 weeks
# ReNCell VM [2] = assay: dopaminergic neuron differentiation score (TH+ cell fraction vs untreated, manual image score) (score (0 to 3)); higher = more TH+ dopaminergic neuron differentiation; conditions: 2 uM, 4 weeks, BDNF 10 ng/ml + GDNF 10 ng/ml
compound,measurement,setting,value
CCN(CC)CCOC(=O)C(Cc1cccc2ccccc12)CC1CCCO1 (stereo not drawn) [Nafronyl oxalate],neuronal differentiation score,ReNCell VM [1]; library: Prestwick,inactive: 0
same,dopaminergic neuron differentiation score,ReNCell VM [2]; library: Prestwick,inactive: 0
O=C(Nc1ccc(C(F)(F)F)cn1)N1CCN(c2ncccc2C(F)(F)F)CC1,neuronal differentiation score,ReNCell VM [1]; library: Tocriscreen,inactive: 0
same,dopaminergic neuron differentiation score,ReNCell VM [2]; library: Tocriscreen,inactive: 0
CCOC(=O)[C@H](CCc1ccccc1)N[C@H]1CCc2ccccc2N(CC(=O)O)C1=O [Benazepril hydrochloride],neuronal differentiation score,ReNCell VM [1]; library: Tocriscreen,inactive: 0
same,dopaminergic neuron differentiation score,ReNCell VM [2]; library: Tocriscreen,inactive: 0
CCCOc1ccc(C(=O)OCCN(CC)CC)cc1N,neuronal differentiation score,ReNCell VM [1]; library: Spectrum,inactive: 0
same,dopaminergic neuron differentiation score,ReNCell VM [2]; library: Spectrum,inactive: 0
O=C1c2c(O)ccc(O)c2C(=O)c2c(NCCNCCO)ccc(NCCNCCO)c21,neuronal differentiation score,ReNCell VM [1]; library: Spectrum,inactive: 0
same,dopaminergic neuron differentiation score,ReNCell VM [2]; library: Spectrum,inactive: 0
CC(C)=CCc1c(O)cc2oc(C)cc(=O)c2c1O,neuronal differentiation score,ReNCell VM [1]; library: Spectrum,inactive: -1
same,dopaminergic neuron differentiation score,ReNCell VM [2]; library: Spectrum,inactive: 0
CC(=O)OC1CCC2(C)C(=CCC3C2CCC2(C)C(C(C)CCCC(C)C)CCC32)C1 (stereo not drawn),neuronal differentiation score,ReNCell VM [1]; library: Spectrum,inactive: 1
same,dopaminergic neuron differentiation score,ReNCell VM [2]; library: Spectrum,inactive: 0
CN(C(=O)CN(CCO)CC(=O)N(C)C(C)(C)Cc1ccccc1)C(C)(C)Cc1ccccc1 [Oxethazaine],neuronal differentiation score,ReNCell VM [1]; library: Prestwick,inactive: 0
same,dopaminergic neuron differentiation score,ReNCell VM [2]; library: Prestwick,inactive: 0
CC(C)NNC(=O)c1ccncc1 [Iproniazid phosphate],neuronal differentiation score,ReNCell VM [1]; library: LOPAC,inactive: 0
same,dopaminergic neuron differentiation score,ReNCell VM [2]; library: LOPAC,inactive: 0
CN1CCC(OC(c2ccccc2)c2ccccc2)CC1 [Diphenylpyraline hydrochloride],neuronal differentiation score,ReNCell VM [1]; library: Prestwick,inactive: 0
same,dopaminergic neuron differentiation score,ReNCell VM [2]; library: Prestwick,inactive: 0
CC(=O)SCC(Cc1ccccc1)C(=O)NCC(=O)OCc1ccccc1 (stereo not drawn) [Racecadotril],neuronal differentiation score,ReNCell VM [1]; library: Prestwick,inactive: 0
same,dopaminergic neuron differentiation score,ReNCell VM [2]; library: Prestwick,inactive: 0
CCCc1nc(C(C)(C)O)c(C(=O)O)n1Cc1ccc(-c2ccccc2-c2nnn[nH]2)cc1 [Olmesartan],neuronal differentiation score,ReNCell VM [1]; library: Prestwick,inactive: 0
same,dopaminergic neuron differentiation score,ReNCell VM [2]; library: Prestwick,inactive: 0
CC(COc1ccc(/C=C/c2ccccc2)cc1)[N+](C)(C)C (stereo not drawn),neuronal differentiation score,ReNCell VM [1]; library: LOPAC,inactive: 0
same,dopaminergic neuron differentiation score,ReNCell VM [2]; library: LOPAC,inactive: 0
C#CCN[C@@H]1CCc2ccccc21,neuronal differentiation score,ReNCell VM [1]; library: Spectrum,inactive: 0
same,dopaminergic neuron differentiation score,ReNCell VM [2]; library: Spectrum,inactive: 0
CCCc1nn(C)c2c(=O)[nH]c(-c3cc(S(=O)(=O)N4CCN(C)CC4)ccc3OCC)nc12 [Sildenafil],neuronal differentiation score,ReNCell VM [1]; library: Prestwick,inactive: 0
same,dopaminergic neuron differentiation score,ReNCell VM [2]; library: Prestwick,inactive: 0
C[C@]12C=CC(=O)N[C@@H]1CC[C@@H]1[C@@H]2CC[C@]2(C)[C@@H](C(=O)Nc3cc(C(F)(F)F)ccc3C(F)(F)F)CC[C@@H]12,neuronal differentiation score,ReNCell VM [1]; library: Spectrum,inactive: 0
same,dopaminergic neuron differentiation score,ReNCell VM [2]; library: Spectrum,inactive: 0
O=C1c2c(O)ccc(O)c2C(=O)c2c(NCCNCCO)ccc(NCCNCCO)c21 [Mitoxantrone dihydrochloride],neuronal differentiation score,ReNCell VM [1]; library: Prestwick,inactive: 0
same,dopaminergic neuron differentiation score,ReNCell VM [2]; library: Prestwick,inactive: 0
CCCC(CCC)C(=O)O [Valproic acid],neuronal differentiation score,ReNCell VM [1]; library: Prestwick,inactive: 0
same,dopaminergic neuron differentiation score,ReNCell VM [2]; library: Prestwick,inactive: 0
Cc1cc(C)cc(C(=O)N(C)[C@H](Cc2ccc(-c3ccccc3)cc2)C(=O)N[C@@H](Cc2c[nH]c3ccccc23)C(=O)O)c1,neuronal differentiation score,ReNCell VM [1]; library: Tocriscreen,inactive: 0
same,dopaminergic neuron differentiation score,ReNCell VM [2]; library: Tocriscreen,inactive: 0
CCOC(=O)C(C)(C)Oc1ccc(Cl)cc1,neuronal differentiation score,ReNCell VM [1]; library: Spectrum,inactive: 0
same,dopaminergic neuron differentiation score,ReNCell VM [2]; library: Spectrum,inactive: 0
CN(C)CCC(c1ccccc1)c1ccccn1 (stereo not drawn),neuronal differentiation score,ReNCell VM [1]; library: Spectrum,inactive: 0
same,dopaminergic neuron differentiation score,ReNCell VM [2]; library: Spectrum,inactive: 0
CCN1CCC[C@H]1CNC(=O)c1c(OC)ccc(Br)c1OC [Remoxipride Hydrochloride],neuronal differentiation score,ReNCell VM [1]; library: Prestwick,inactive: 0
same,dopaminergic neuron differentiation score,ReNCell VM [2]; library: Prestwick,inactive: 0
"O=C(O)Cc1ccc(O)c(O)c1 [3,4-Dihydroxyphenylacetic acid]",neuronal differentiation score,ReNCell VM [1]; library: LOPAC,inactive: 0
same,dopaminergic neuron differentiation score,ReNCell VM [2]; library: LOPAC,inactive: 0
O=c1nc2ccccc2c2n1CC(CN1CCN(c3ccccc3)CC1)N2 (stereo not drawn),neuronal differentiation score,ReNCell VM [1]; library: Tocriscreen,inactive: 0
same,dopaminergic neuron differentiation score,ReNCell VM [2]; library: Tocriscreen,inactive: 0
O=P(O)(O)C(Cl)(Cl)P(=O)(O)O [Clodronic acid],neuronal differentiation score,ReNCell VM [1]; library: LOPAC,inactive: 0
same,dopaminergic neuron differentiation score,ReNCell VM [2]; library: LOPAC,inactive: 0
COC(=O)c1c(C)c2c(c(C)c1O)OC(=O)c1c(C)c(Cl)c(O)c(Cl)c1O2,neuronal differentiation score,ReNCell VM [1]; library: Spectrum,inactive: 0
same,dopaminergic neuron differentiation score,ReNCell VM [2]; library: Spectrum,inactive: 0
Cc1scc2c1N(C(=O)CN1CCN(C)CC1)c1ccccc1NC2=O,neuronal differentiation score,ReNCell VM [1]; library: Spectrum,inactive: 0
same,dopaminergic neuron differentiation score,ReNCell VM [2]; library: Spectrum,inactive: 0
CN1CCCN=C1/C=C/c1cccs1,neuronal differentiation score,ReNCell VM [1]; library: Spectrum,inactive: 0
same,dopaminergic neuron differentiation score,ReNCell VM [2]; library: Spectrum,inactive: 0
"CN(Cc1cnc2nc(N)nc(N)c2n1)c1ccc(C(=O)N[C@@H](CCC(=O)O)C(=O)O)cc1 (racemic) [Amethopterin (R,S)]",neuronal differentiation score,ReNCell VM [1]; library: Prestwick,inactive: 0
same,dopaminergic neuron differentiation score,ReNCell VM [2]; library: Prestwick,inactive: 0
NCC=CC(=O)O (stereo in doubt) [cis-4-Aminocrotonic acid],neuronal differentiation score,ReNCell VM [1]; library: LOPAC,active: 2
same,dopaminergic neuron differentiation score,ReNCell VM [2]; library: LOPAC,inactive: 0
Cc1nc2[nH]c(=O)[nH]c(=O)c2[nH]1 [8-methylxanthine],neuronal differentiation score,ReNCell VM [1]; library: Natural,inactive: 0
same,dopaminergic neuron differentiation score,ReNCell VM [2]; library: Natural,inactive: 0
Cc1sc(N)c(C(=O)c2cccc(C(F)(F)F)c2)c1C,neuronal differentiation score,ReNCell VM [1]; library: Tocriscreen,inactive: 1
same,dopaminergic neuron differentiation score,ReNCell VM [2]; library: Tocriscreen,inactive: 0
O=C(Nc1cccc2cccnc12)c1ccc(N2C(=O)[C@@H]3[C@H](C2=O)[C@@H]2C=C[C@H]3C2)cc1 [endo-IWR 1],neuronal differentiation score,ReNCell VM [1]; library: Tocriscreen,inactive: 0
same,dopaminergic neuron differentiation score,ReNCell VM [2]; library: Tocriscreen,inactive: 0
NC[C@@H]1CC[C@@H](N)[C@@H](O[C@H]2[C@H](O)[C@@H](O[C@H]3O[C@H](CO)[C@@H](O)[C@H](N)[C@H]3O)[C@H](N)C[C@@H]2N)O1,neuronal differentiation score,ReNCell VM [1]; library: Spectrum,inactive: 0
same,dopaminergic neuron differentiation score,ReNCell VM [2]; library: Spectrum,inactive: 0

# Nothing new here: entries from further up.
compound,measurement,setting,value
C[C@]12C=CC(=O)N[C@@H]1CC[C@@H]1[C@@H]2CC[C@]2(C)[C@@H](C(=O)Nc3cc(C(F)(F)F)ccc3C(F)(F)F)CC[C@@H]12,neuronal differentiation score,ReNCell VM [1]; library: Spectrum,inactive: 0
same,dopaminergic neuron differentiation score,ReNCell VM [2]; library: Spectrum,inactive: 0
O=C1c2c(O)ccc(O)c2C(=O)c2c(NCCNCCO)ccc(NCCNCCO)c21 [Mitoxantrone dihydrochloride],neuronal differentiation score,ReNCell VM [1]; library: Prestwick,inactive: 0

# Given as tab-separated lines: part of the list above.
compound	measurement	setting	value
CN1CCC(OC(c2ccccc2)c2ccccc2)CC1 [Diphenylpyraline hydrochloride]	dopaminergic neuron differentiation score	ReNCell VM [2]; library: Prestwick	inactive: 0
CC(=O)SCC(Cc1ccccc1)C(=O)NCC(=O)OCc1ccccc1 (stereo not drawn) [Racecadotril]	neuronal differentiation score	ReNCell VM [1]; library: Prestwick	inactive: 0
